## Primary screen of a compound library

From ChEMBL document CHEMBL3988442, “University of Dundee, Small-Polar-MMV Screening Library” (2021).

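Whole-parasite assay of Trypanosoma brucei over 72 hours; the read-out is not stated. Tested at 30 µM. The record gives no direction; compounds that gave an IC50 in retests scored well above the rest, so higher reads as stronger inhibition. Values scatter widely below zero; nearly all retest evidence comes from the higher of the two concentrations used. About 64,000 compounds were tested under these conditions; 1.5% (about 940) showed 50% or more at least once.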

The filed quantity is “Percent Effect” (%).
The controls that fix the scale are not given in the record; negative values are as filed.
The compounds are a random part of those screened.

| SMILES | effect |
|---|---|
| `Cc1cc(NC(=O)N2CCC[C@@H]2CO)nn1-c1ccccc1Cl` | 5.997 |
| `Cc1cc(C(=O)NCCc2cn3nc(C)sc3n2)c(C)o1` | -54.04 |
| `CC(C)C1CN(C(=O)c2cc(=O)[nH]c(=O)[nH]2)CCC(=O)N1CC1CC1` (stereo not shown) | -23.18 |
| `O=C(O)C(F)(F)F.O=C(O)C(F)(F)F.[H][C@]12C[C@@H](C(=O)Nc3cccnc3)CO[C@@]1([H])CCN(c1ncc(F)cn1)C2` | 39.82 |
| `CNC(=O)Cc1noc(Cc2cccc(Br)c2)n1` | -0.1457 |
| `O=C(O)C(F)(F)F.[H][C@]12CN(CCc3ccccc3)C[C@@]1([H])S(=O)(=O)CC[C@@H]2C(=O)NC1CCC1` | -37.75 |
| `CC(C)c1n[nH]c(C2CN(C(=O)c3cc(C(N)=O)cs3)CCO2)n1` (stereo not shown) | -21.18 |
| `COCC(O)CN(C)C(=O)NCc1ccc(S(C)(=O)=O)cc1` (stereo not shown) | -17.73 |
| `COc1ccc(C[C@H]2CN(C(=O)c3cnoc3)CC[C@@H]2OC)cc1` | 12.14 |
| `COc1cccc(C(O)C(=O)N(C)CCc2ccccn2)c1` (stereo not shown) | -31.93 |
| `O=C(c1cscn1)N1CCC2(CC1)CCN(S(=O)(=O)c1ccccc1)C2` | -21.52 |
| `Cc1nn(-c2ncccn2)c2c1C(c1cnn(C)c1C)SCC(=O)N2` (stereo not shown) | -31.84 |
| `CCOCCCNC(=O)c1nc2c(s1)CCCN2c1ccc(C)nn1.O=C(O)C(F)(F)F` | 7.208 |
| `COCC(C)NC(=O)c1cn(C(C)C)cc2c(=O)[nH]nc1-2` (stereo not shown) | -25.49 |
| `CCc1cnc(N)nc1NCCC(=O)NC1CCCCC1` | -39.71 |
| `CC(O)CN1CCC(CNCc2ccc(S(C)(=O)=O)cc2)CC1` (stereo not shown) | -48.57 |
| `CSc1nccc(N2CCN(C)C3(CCNC(=O)CC3)C2)n1` (stereo not shown) | 31.47 |
| `Cn1ccnc1CN1CCC2(CC(=O)N(c3ccccn3)C2)C1.O=C(O)C(F)(F)F.O=C(O)C(F)(F)F` (stereo not shown) | -24.9 |
| `CN(Cc1cc(-c2cccnc2)no1)C(=O)[C@@H]1CSCN1C` | -21.32 |
| `Cn1nccc1-c1cc(C2CCN(S(C)(=O)=O)CC2)ccn1` | -10.03 |
| `CCN1CCN(c2ccc(CNC(=O)Cc3c(C)noc3C)cn2)CC1` | -1.594 |
| `CS(=O)(=O)N1CCC(OCCCc2ccccc2)C1` (stereo not shown) | -81.41 |
| `Cn1cccc1CN1CCC2(CCCN(C(=O)c3cnccn3)C2)C1.O=C(O)C(F)(F)F` (stereo not shown) | -48.43 |
| `COCC(=O)N1CCN(C(C)c2ncc(-c3ccccc3)o2)CC1` (stereo not shown) | -39.38 |
| `CCCn1nc2c(cc1=O)CN(Cc1nnc(C3CC3)o1)CC2` | 6.097 |
| `O=C1CCC2(CCNCC2)CN1Cc1nnc2ccccn12` | -71.5 |
| `[H][C@@]12CCCO[C@]1([H])[C@H](N(C)Cc1cccnc1)CN2C(=O)c1ccco1` | -46.32 |
| `CN(Cc1ncc(C(C)(C)C)o1)CC1CCCN1c1cccnn1` (stereo not shown) | 8.446 |
| `CCN1CCC2(CC1)CC(NCc1cccs1)c1ccccc1O2.O=C(O)C(F)(F)F.O=C(O)C(F)(F)F` (stereo not shown) | 4.52 |
| `CCn1c(CN(C)C)nnc1C1CCN(Cc2cccc(F)c2F)CC1` | -10.54 |
| `Cc1ncccc1CNc1ccc(OCCO)nc1` | -108.4 |
| `Cc1cc(C(=O)N2CCCC2c2c(C)nn(C)c2C)no1` (stereo not shown) | -9.701 |
| `CCn1cc(CN2CCCN(C(=O)CCCn3cncn3)CC2)cn1` | 26.55 |
| `Cc1cnn(CCCNC(=O)NCCC(=O)Nc2ccccc2)c1` | -40.49 |
| `CN1C(=O)C2(CCN(c3ncccc3C(=O)O)CC2)c2ccccc21` | 6.452 |
| `COCCN(C)C[C@H]1C[C@H](CO)CN(C(=O)c2ccn(C)c(=O)c2)C1` | -4.924 |
| `CN(C)C(=O)CO[C@H]1CO[C@@]2(CCN(Cc3ccoc3)C2)C1` | -40.13 |
| `CC1(C)CN(C(=O)CC2CCS(=O)(=O)CC2)C[C@]1(C)O` | 1.606 |
| `CC(C)c1nc(C2CCCN2CC(=O)N2CCNC2=O)no1` (stereo not shown) | -0.142 |
| `Cc1ccccc1CNC(=O)CNc1ccc(OC2CCOC2)cc1` (stereo not shown) | -22.35 |
| `CC(C)(C)NC(=O)C1CSCN1S(=O)(=O)c1ccccc1S(C)(=O)=O` (stereo not shown) | -7.962 |
| `Cc1ccc(NC(=O)Cn2ncc(SCC(N)=O)c(Cl)c2=O)c(F)c1` | -2.137 |
| `c1cnc2[nH]c(C3CCNCC3)c(CN3CCOCC3)c2c1` | 9.409 |
| `Cc1c(C(C)NC2CCN(C(C)C)CC2)cnn1-c1ccc(F)cc1F` (stereo not shown) | 19.51 |
| `Cn1cc(-c2nnn3c2COC(CNCc2nccs2)C3)cn1` (stereo not shown) | 7.187 |
| `Cc1cccc(CN2CCn3cc(CNC(=O)CC4CC4)nc3C2)n1` | -5.494 |
| `COc1ccc(CN(C)C(=O)CCc2c(C)nc(C)[nH]c2=O)cc1OC` | -10.92 |

The first 4 entries again:

{"smiles": "Cc1cc(NC(=O)N2CCC[C@@H]2CO)nn1-c1ccccc1Cl", "effect": 5.997}
{"smiles": "Cc1cc(C(=O)NCCc2cn3nc(C)sc3n2)c(C)o1", "effect": -54.04}
{"smiles": "CC(C)C1CN(C(=O)c2cc(=O)[nH]c(=O)[nH]2)CCC(=O)N1CC1CC1", "stereo": "stereo not shown", "effect": -23.18}
{"smiles": "O=C(O)C(F)(F)F.O=C(O)C(F)(F)F.[H][C@]12C[C@@H](C(=O)Nc3cccnc3)CO[C@@]1([H])CCN(c1ncc(F)cn1)C2", "effect": 39.82}